This is an account of results in doi:10.1101/2025.04.16.649118.

Sequences of proteins named here, by UniProt entry; tags and fusion partners are left off.
UniProt Q13283: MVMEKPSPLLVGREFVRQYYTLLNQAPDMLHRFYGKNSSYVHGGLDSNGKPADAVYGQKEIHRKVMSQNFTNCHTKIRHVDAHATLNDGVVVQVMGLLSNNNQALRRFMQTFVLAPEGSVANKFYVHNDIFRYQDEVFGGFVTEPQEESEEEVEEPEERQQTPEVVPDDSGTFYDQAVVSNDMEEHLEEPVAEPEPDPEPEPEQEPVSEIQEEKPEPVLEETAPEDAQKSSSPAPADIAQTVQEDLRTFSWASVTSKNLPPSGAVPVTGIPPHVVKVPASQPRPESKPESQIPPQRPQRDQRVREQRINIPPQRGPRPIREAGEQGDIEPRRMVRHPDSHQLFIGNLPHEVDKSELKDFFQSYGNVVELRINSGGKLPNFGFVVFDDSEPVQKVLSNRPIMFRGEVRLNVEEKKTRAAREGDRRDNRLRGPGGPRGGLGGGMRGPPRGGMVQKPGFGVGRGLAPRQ
UniProt Q92598: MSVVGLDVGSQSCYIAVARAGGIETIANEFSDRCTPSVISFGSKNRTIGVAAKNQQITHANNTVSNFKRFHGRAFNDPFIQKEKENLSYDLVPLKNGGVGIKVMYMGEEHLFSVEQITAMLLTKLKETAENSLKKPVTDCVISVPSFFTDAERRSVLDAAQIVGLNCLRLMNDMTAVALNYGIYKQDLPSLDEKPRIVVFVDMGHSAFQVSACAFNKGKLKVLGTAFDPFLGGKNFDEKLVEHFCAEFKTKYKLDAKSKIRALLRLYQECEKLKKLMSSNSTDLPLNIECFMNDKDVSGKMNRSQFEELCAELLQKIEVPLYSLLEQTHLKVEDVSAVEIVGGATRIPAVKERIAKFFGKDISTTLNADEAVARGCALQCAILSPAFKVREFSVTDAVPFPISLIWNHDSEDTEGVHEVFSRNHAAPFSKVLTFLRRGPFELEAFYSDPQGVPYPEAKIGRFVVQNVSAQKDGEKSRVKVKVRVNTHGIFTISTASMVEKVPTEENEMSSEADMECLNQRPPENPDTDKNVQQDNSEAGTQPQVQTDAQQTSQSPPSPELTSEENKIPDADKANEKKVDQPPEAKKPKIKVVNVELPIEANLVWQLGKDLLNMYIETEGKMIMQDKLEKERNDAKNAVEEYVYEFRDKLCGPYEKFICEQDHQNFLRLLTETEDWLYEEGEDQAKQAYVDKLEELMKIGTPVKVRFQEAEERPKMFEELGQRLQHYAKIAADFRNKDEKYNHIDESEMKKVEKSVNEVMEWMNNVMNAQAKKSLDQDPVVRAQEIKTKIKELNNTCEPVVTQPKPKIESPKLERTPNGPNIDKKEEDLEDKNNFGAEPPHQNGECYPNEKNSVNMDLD
UniProt P22314: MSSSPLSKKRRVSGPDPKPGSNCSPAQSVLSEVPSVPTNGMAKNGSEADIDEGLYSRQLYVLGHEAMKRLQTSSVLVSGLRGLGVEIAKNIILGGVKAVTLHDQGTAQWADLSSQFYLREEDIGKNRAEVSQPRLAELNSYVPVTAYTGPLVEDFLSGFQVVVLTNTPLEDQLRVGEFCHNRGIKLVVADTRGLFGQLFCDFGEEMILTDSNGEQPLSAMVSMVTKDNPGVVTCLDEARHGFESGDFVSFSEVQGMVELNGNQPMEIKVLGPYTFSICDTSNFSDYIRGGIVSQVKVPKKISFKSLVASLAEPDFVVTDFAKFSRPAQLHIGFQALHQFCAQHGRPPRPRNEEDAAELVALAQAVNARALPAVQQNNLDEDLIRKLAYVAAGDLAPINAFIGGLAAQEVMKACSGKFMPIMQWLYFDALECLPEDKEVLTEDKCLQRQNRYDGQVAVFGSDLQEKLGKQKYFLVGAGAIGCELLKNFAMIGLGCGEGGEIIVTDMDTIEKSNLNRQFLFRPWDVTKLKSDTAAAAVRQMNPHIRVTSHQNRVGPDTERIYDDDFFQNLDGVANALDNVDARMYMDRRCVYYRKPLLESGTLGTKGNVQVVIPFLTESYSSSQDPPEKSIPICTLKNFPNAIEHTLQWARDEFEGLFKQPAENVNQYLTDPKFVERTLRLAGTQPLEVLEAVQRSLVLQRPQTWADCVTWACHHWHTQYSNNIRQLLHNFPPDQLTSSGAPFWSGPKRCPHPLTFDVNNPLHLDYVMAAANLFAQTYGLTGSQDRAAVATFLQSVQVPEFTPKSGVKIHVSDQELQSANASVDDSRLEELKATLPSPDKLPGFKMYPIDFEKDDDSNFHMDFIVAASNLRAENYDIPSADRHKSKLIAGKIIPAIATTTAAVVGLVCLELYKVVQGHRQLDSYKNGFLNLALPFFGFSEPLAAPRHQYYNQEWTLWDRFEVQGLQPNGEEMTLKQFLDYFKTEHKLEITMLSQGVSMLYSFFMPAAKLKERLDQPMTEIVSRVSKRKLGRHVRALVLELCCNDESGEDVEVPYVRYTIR

No constants are given. Whether binding was seen depends on the method and setting. In cells and extracts the contact can be indirect. These calls come from enrichment with a bait or labelling near it, and not all partners need be listed.

The chains are these.
B1: nucleoporin Nup107 (protein, UniProt P57740 1-925)
chain: MDRSGFGEISSPVIREAEVTRTARKQSAQKRVLLQASQDENFGNTTPRNQVIPRTPSSFRQPFTPTSRSLLRQPDISCILGTGGKSPRLTQSSGFFGNLSMVTNLDDSNWAAAFSSQRSGLFTNTEPHSITEDVTISAVMLREDDPGEAASMSMFSDFLQSFLKHSSSTVFDLVEEYENICGSQVNILSKIVSRATPGLQKFSKTASMLWLLQQEMVTWRLLASLYRDRIQSALEEESVFAVTAVNASEKTVVEALFQRDSLVRQSQLVVDWLESIAKDEIGEFSDNIEFYAKSVYWENTLHTLKQRQLTSYVGSVRPLVTELDPDAPIRQKMPLDDLDREDEVRLLKYLFTLIRAGMTEEAQRLCKRCGQAWRAATLEGWKLYHDPNVNGGTELEPVEGNPYRRIWKISCWRMAEDELFNRYERAIYAALSGNLKQLLPVCDTWEDTVWAYFRVMVDSLVEQEIQTSVATLDETEELPREYLGANWTLEKVFEELQATDKKRVLEENQEHYHIVQKFLILGDIDGLMDEFSKWLSKSRNNLPGHLLRFMTHLILFFRTLGLQTKEEVSIEVLKTYIQLLIREKHTNLIAFYTCHLPQDLAVAQYALFLESVTEFEQRHHCLELAKEADLDVATITKTVVENIRKKDNGEFSHHDLAPALDTGTTEEDRLKIDVIDWLVFDPAQRAEALKQGNAIMRKFLASKKHEAAKEVFVKIPQDSIAEIYNQCEEQGMESPLPAEDDNAIREHLCIRAYLEAHETFNEWFKHMNSVPQKPALIPQPTFTEKVAHEHKEKKYEMDFGIWKGHLDALTADVKEKMYNVLLFVDGGWMVDVREDAKEDHERTHQMVLLRKLCLPMLCFLLHTILHSTGQYQECLQLADMVSSERHKLYLVFSKEELRKLLQKLRESSLMLLDQGLDPLGYEIQL
B2: SEPT9 (protein, UniProt Q9UHD8 1-586)
chain: MKKSYSGGTRTSSGRLRRLGDSSGPALKRSFEVEEVETPNSTPPRRVQTPLLRATVASSTQKFQDLGVKNSEPSARHVDSLSQRSPKASLRRVELSGPKAAEPVSRRTELSIDISSKQVENAGAIGPSRFGLKRAEVLGHKTPEPAPRRTEITIVKPQESAHRRMEPPASKVPEVPTAPATDAAPKRVEIQMPKPAEAPTAPSPAQTLENSEPAPVSQLQSRLEPKPQPPVAEATPRSQEATEAAPSCVGDMADTPRDAGLKQAPASRNEKAPVDFGYVGIDSILEQMRRKAMKQGFEFNIMVVGQSGLGKSTLINTLFKSKISRKSVQPTSEERIPKTIEIKSITHDIEEKGVRMKLTVIDTPGFGDHINNENCWQPIMKFINDQYEKYLQEEVNINRKKRIPDTRVHCCLYFIPATGHSLRPLDIEFMKRLSKVVNIVPVIAKADTLTLEERVHFKQRITADLLSNGIDVYPQKEFDEDSEDRLVNEKFREMIPFAVVGSDHEYQVNGKRILGRKTKWGTIEVENTTHCEFAYLRDLLIRTHMQNIKDITSSIHFEAYRVKRLNEGSSAMANGMEEKEPEAPEM

The target in this assay is G3BP1 (human (endogenous in iPSC-derived motor neurons)) (UniProt Q13283). Put plainly: affinity purification with mass spectrometry.
With HSPH1 (from UniProt Q92598 1-858), the binding entry is “binds”.
To UBA1 (from UniProt P22314 1-1058) belongs “binds”; to B1, “binds”; to B2, “binds”.
